# ± gives the standard deviation. This is a selection; strong and weak results do not stand in their true shares. The uncertainty is large for many entries.
# System: MIWI (PIWIL1) piRISC loaded with piRNA #2 (30 nt)
# Test: pre-steady-state target cleavage rate (min^-1); MIWI and MILI are mouse PIWI proteins and EfPiwi is from a freshwater sponge; tags in brackets are library labels; higher = faster piRNA-guided slicing of the target
# Conditions: guide: piRNA #2 5'p-UUAGGUAACCCAGUAGAUCCAGAGGAAUUC; auxiliary factor: 500 nM mouse GTSF1
# In short: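 Sequencing of uncleaved targets, normalised to depth and to weakly complementary targets, was the readout of this Cleave-'n-Seq assay. A transcribed, DNA-blocked target RNA library (0.1 nM) was mixed with 1 nM active affinity-purified piRISC carrying one synthetic guide, with or without 500 nM GTSF1 partner protein, in HEPES–potassium acetate buffer at 33 °C for 0–8 or 0–960 min. Three trials were pooled, k3 was capped at 0.0001 min^-1, and a burst-and-steady-state fit gave the pre-steady-state cleavage rate.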
row,Sequence,pre-steady-state target cleavage rate
1,CUAUUCCUCUGGAUCUACUGGGUUACAUAA,0.739 ± 0.051
2,CUUAAGGAGACCAUCUACUGCGGUUACCUAA,0.00337 ± 0.0045
3,CUUAAGGAGUCGAUCUACUGGGUUAGCUAA,0.000207 ± 0.051
4,CUAUUCCUGUGGAUCUACUGGCUUACCUAA,0.0662 ± 0.017
5,CAAUUCCUCUGGAUCUAACUGGGUUACCUAA,0.00269 ± 0.0055
6,CUUAAGGAGACCUUCUACUGGGUUACCUGAA,0.00152 ± 0.0056
7,CUUAAGGAGACGAUCUACUGCGUAACCUAA,0.000721 ± 0.0078
8,CUUAAGGAGACCUAGAUCUGGGUUACGAUA,0.000347 ± 0.014
9,CUUAAGUUCUGGAUCUACUGGGUUACCUAA,0.274 ± 0.04
10,CUUAAGGAGACGAUCUACUGGGAUUACCUAA,0.001 ± 0.008
11,CUUAAGGAGACGAACUACUGCGUUACCUAA,0.000528 ± 0.007
12,CUUAAGGAGAGGAUCUACUGGGUAUGCUAA,0.000134 ± 0.043
13,CUUAAGGAGACGAACUACUGGGUUACCUUA,0.0007 ± 0.0057
14,CUUAAGGAGACGAACUACUGGGUUACGUAA,0.000439 ± 0.016
15,CUAUUCCUCUGGAUCUACUUGGGUUACCUAA,0.00165 ± 0.0065
16,CUAUUCCUCUGGAUCUGACUGGGUUACCUAA,0.000849 ± 0.012
17,CUUAUCCUCUGGAUCUUCUGGGUUACGUAA,0.45 ± 0.055
18,CUUAAGGAGACCUACUACCGGGUUACCUAA,0.00114 ± 0.007
19,CUUAAGGUCUGGAACUACUGGCUUACCUAA,0.027 ± 0.022
20,CUUAAGGAGACCUACUAACUGGGUUACCUAA,0.000961 ± 0.0093
21,CUUAAGGAGACGAUCUACUGGGUUUCCUAA,0.00205 ± 0.0044
22,CUUAAGGAGACCUUCGACUGGGUUACCUAA,0.000542 ± 0.0084
23,CUUAAGGAGACCUUCUACUGGGUCACCUAA,0.00106 ± 0.011
24,CUUAAGGAGAGGAUCUAAUGGGUUACCUAA,0.000703 ± 0.018

row,Sequence,pre-steady-state target cleavage rate
1,CUUAAGGAGACCUUCUACUGGGUUCACCUAA,0.00182 ± 0.0074
2,CUUAAGGAGACCAUCUUCUGGGUUACGUAA,0.00133 ± 0.0071
3,GAAUUCCUCUCGAUCUACUGGGUUUCCUAA,0.524 ± 0.06
4,CUUAAGGAGAGGAUCUACUGGGUACCUAA,0.000298 ± 0.015
5,CUUAAGGAGACCUAGUUCUGGGUUACCAAA,0.000879 ± 0.0099
6,CUUAAGGAGACCUUACUACUGGGUUACCUAA,0.00167 ± 0.0071
7,CUUAAGGAGACCUUCUACAGGGUUACCAAA,0.0016 ± 0.0047
8,CUUAAGGAGACCUAGUACUGGGUUUCGUAA,0.00035 ± 0.018
9,CUUAUCCUCUGGAUCUACUUGGGUUACCUAA,0.00126 ± 0.0071
10,CUUAAGGACUGGUCUACUGGGUUACCUAA,0.000539 ± 0.027
11,CUUAAGGAGACGAUCUACUGGGUAUCCUAA,0.00124 ± 0.0047
12,CUUAAGGAGACGAUCUAUGGGUUACCUAA,0.00153 ± 0.0044
13,CUUAACCUCUCGAUGUACUGGGUUACCUAA,0.421 ± 0.029
14,CUUAAGGACUGGAUCUACUGCGUUAGCUAA,0.0147 ± 0.02
15,CUUAAGGAGACCUAGAUCUGGGUUACUAA,0.00023 ± 0.016
16,CUUAAGGAGACCAUCUACUGGGUUACCAA,0.00251 ± 0.0026
17,CUUAAGGAGACCUAGAUCUUGGUUACCUAA,0.000361 ± 0.013
18,CUUAAGGAGUGCAUCUACUGGGUUACCAAA,0.00134 ± 0.0055
19,CUUAAGGAGACCUAGAACUGGGUUUACCUAA,0.000205 ± 0.025
20,CUUAAGGAGACCUAGUACUGGGUUACCUCAA,0.000733 ± 0.0095
21,CUUAAGCUCUGGAUCUACUGGGUUCCUAA,0.00127 ± 0.0073
22,CUUAAGGAGACCUAGAUCUGGGUUACCUCAA,0.000615 ± 0.015
23,CUUAAGGAGACCUAGAUGACGGUUCCCUAA,0.000138 ± 0.033
24,CUUAAGGAGACCUAGAUGAGGUUACCUAA,0.000893 ± 0.0086

# Shown bar-delimited: entries from further up
row | Sequence | pre-steady-state target cleavage rate
3 | GAAUUCCUCUCGAUCUACUGGGUUUCCUAA | 0.524 ± 0.06
4 | CUUAAGGAGAGGAUCUACUGGGUACCUAA | 0.000298 ± 0.015
5 | CUUAAGGAGACCUAGUUCUGGGUUACCAAA | 0.000879 ± 0.0099
6 | CUUAAGGAGACCUUACUACUGGGUUACCUAA | 0.00167 ± 0.0071
7 | CUUAAGGAGACCUUCUACAGGGUUACCAAA | 0.0016 ± 0.0047
8 | CUUAAGGAGACCUAGUACUGGGUUUCGUAA | 0.00035 ± 0.018
9 | CUUAUCCUCUGGAUCUACUUGGGUUACCUAA | 0.00126 ± 0.0071
10 | CUUAAGGACUGGUCUACUGGGUUACCUAA | 0.000539 ± 0.027
11 | CUUAAGGAGACGAUCUACUGGGUAUCCUAA | 0.00124 ± 0.0047
12 | CUUAAGGAGACGAUCUAUGGGUUACCUAA | 0.00153 ± 0.0044
13 | CUUAACCUCUCGAUGUACUGGGUUACCUAA | 0.421 ± 0.029
14 | CUUAAGGACUGGAUCUACUGCGUUAGCUAA | 0.0147 ± 0.02
15 | CUUAAGGAGACCUAGAUCUGGGUUACUAA | 0.00023 ± 0.016
16 | CUUAAGGAGACCAUCUACUGGGUUACCAA | 0.00251 ± 0.0026
17 | CUUAAGGAGACCUAGAUCUUGGUUACCUAA | 0.000361 ± 0.013
18 | CUUAAGGAGUGCAUCUACUGGGUUACCAAA | 0.00134 ± 0.0055
19 | CUUAAGGAGACCUAGAACUGGGUUUACCUAA | 0.000205 ± 0.025
20 | CUUAAGGAGACCUAGUACUGGGUUACCUCAA | 0.000733 ± 0.0095
21 | CUUAAGCUCUGGAUCUACUGGGUUCCUAA | 0.00127 ± 0.0073
22 | CUUAAGGAGACCUAGAUCUGGGUUACCUCAA | 0.000615 ± 0.015

# Later entries.

row,Sequence,pre-steady-state target cleavage rate
1,CUUAAGGUCUGGAUCUACUGGGUUUGGUAA,0.00539 ± 0.0055
2,CUUAAGGAGACCAUCUACUGGCAUACCUAA,0.000838 ± 0.012
3,CUUAAGGACUGGAUGUAGUGGGUUACCUAA,0.00176 ± 0.011
4,CUUUUCCUCUGGAUCUAGCUGGGUUACCUAA,0.00129 ± 0.0062
5,CUUAAGGAGACCAUCUACAGGGUUACCAAA,0.00159 ± 0.0048
6,CUUAACCUCUGGAUCAUGUGGGUUACCUAA,0.000788 ± 0.0097
7,CUUUUCCUCUGGAUCUACUGGUGUUACCUAA,0.00402 ± 0.0035
8,CUUAAGGAGACCAUCCUACUGGGUUACCUAA,0.00206 ± 0.0038
9,CUUAAGGAGUGUAUCUACUGGGUUACCUAA,0.00745 ± 0.0081
10,CUUAAGGAGACCUUCUAUCUGGGUUACCUAA,0.00126 ± 0.0073
11,CUUAAGGAGAGGAUCUAGCUGGGUUACCUAA,0.000138 ± 0.04
12,CUUAAGGAGAGGAUCUUCUGGGAUACCUAA,0.000114 ± 0.051
13,CUUAAGGAGACCUUCUACUGGCUUACCUAA,0.00171 ± 0.0037
14,GUAUACCUCUGGAUCUACUGGGUUACCUAA,0.642 ± 0.23
15,CUUAAGGAGACCUAGAUGUCGGGUUACCUAA,0.000577 ± 0.014
16,CUUAAGGAGAGUAUCUACUGGGUUACCUAA,0.00318 ± 0.0044
17,CUUAACCUCUGGAUCUCUGGGUUACCUAA,0.00276 ± 0.0039
18,CUUAAGGAGACCUAGAUGACCGUUACCUAU [g2:g9:cont:t1U],0.000142 ± 0.018
19,CUUAAGGAGACCUAGUACUGGGUUACCUAU [g2:g15:cont:t1U],0.00141 ± 0.0036
20,CUUAAGGAGACCUAGAUGUGGGUUACCUAG [g2:g12:cont:t1G],0.000336 ± 0.02
21,CUUAAGGACUGGAUCUACUGGGUUACCAUAA,0.051 ± 0.039
22,CUUAAGGAGACCUUCGUACUGGGUUACCUAA,0.000479 ± 0.015
23,CUUAAGGAGACCUAGUACUGGGUUACCUAA,0.00126 ± 0.0044
